Measured values from publication doi:10.1101/2022.02.03.478940.
These are yes or no findings as the source states them, for the method shown. In cells and extracts the contact can be indirect. Some entries that bind do so weakly or less than the wild type. Sequences can lack the tags named with a protein.

T1: C-terminally FLAG-tagged Tim18 (S. cerevisiae) (UniProt Q08749)
T1 sequence: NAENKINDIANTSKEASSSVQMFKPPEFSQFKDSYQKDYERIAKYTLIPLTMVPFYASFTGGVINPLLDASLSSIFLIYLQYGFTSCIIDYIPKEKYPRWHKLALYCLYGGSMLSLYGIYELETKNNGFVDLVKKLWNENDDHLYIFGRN

B1: Sdh3 (protein, UniProt P33421 51-198)
chain: NVASEMNTKAAIAEEQILNKQRAKRPISPHLTIYQPQLTWYLSSLHRISLVLMGLGFYLFTILFGVSGLLGLGLTTEKVSNWYHQKFSKITEWSIKGSFAYLFAIHYGGAIRHLIWDTAKELTLKGVYRTGYALIGFTAVLGTYLLTL
B2: Yme1 (enzyme, UniProt P32795 1-747)
chain: MNVSKILVSPTVTTNVLRIFAPRLPQIGASLLVQKKWALRSKKFYRFYSEKNSGEMPPKKEADSSGKASNKSTISSIDNSQPPPPSNTNDKTKQANVAVSHAMLATREQEANKDLTSPDAQAAFYKLLLQSNYPQYVVSRFETPGIASSPECMELYMEALQRIGRHSEADAVRQNLLTASSAGAVNPSLASSSSNQSGYHGNFPSMYSPLYGSRKEPLHVVVSESTFTVVSRWVKWLLVFGILTYSFSEGFKYITENTTLLKSSEVADKSVDVAKTNVKFDDVCGCDEARAELEEIVDFLKDPTKYESLGGKLPKGVLLTGPPGTGKTLLARATAGEAGVDFFFMSGSEFDEVYVGVGAKRIRDLFAQARSRAPAIIFIDELDAIGGKRNPKDQAYAKQTLNQLLVELDGFSQTSGIIIIGATNFPEALDKALTRPGRFDKVVNVDLPDVRGRADILKHHMKKITLADNVDPTIIARGTPGLSGAELANLVNQAAVYACQKNAVSVDMSHFEWAKDKILMGAERKTMVLTDAARKATAFHEAGHAIMAKYTNGATPLYKATILPRGRALGITFQLPEMDKVDITKRECQARLDVCMGGKIAEELIYGKDNTTSGCGSDLQSATGTARAMVTQYGMSDDVGPVNLSENWESWSNKIRDIADNEVIELLKDSEERARRLLTKKNVELHRLAQGLIEYETLDAHEIEQVCKGEKLDKLKTSTNTVVEGPDSDERKDIGDDKPKIPTMLNA

Biological target: T1, C-terminally FLAG-tagged Tim18 (S. cerevisiae)
Assay: co-IP

Binder | binding
B1 | binds
B2 | binds
